We go through 20 compounds from PubChem BioAssay AID2052 (NMMLSC, 2009).

Some of the results follow. Some of these compounds have results that are not shown, active ones among them.

The nature of this assay: murine CD8 T cell vesicle adhesion modulation – mouse 2C CD8+ T cells, flow cytometry, primary screen (AID 2052).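 Note: binding gate set so that unloaded-vesicle control wells show 10% double positive cells.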 The conditions noted are these: 2C CD8+ T cell-vesicle binding, measured here: CD8+ vesicle-bound cell fraction, at 7 µM, stronger effect = lower value. In a few lines:
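Material: 2C TCR transgenic mouse naive CD8+ T cells, MACS-purified. Also added: QL9-charged Drosophila Ld/ICAM-1/B7-1 vesicles. Timing: binding 1.5 h at 37 °C. Measured by: high-throughput flow cytometry with anti-B7-1 and anti-CD8 staining. Read-out: percent CD8+ FL2 mean versus row control. Controls: Unloaded micro-vesicles (low), QL9 vesicles with 0.7% DMSO (high).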
(In general: Flow cytometry measures light scatter and fluorescence of single cells or particles in a stream.)
The compound `COc1ccc(Cl)cc1C(=O)NCC1(N(C)C)CCCCC1` showed a double positive events of 56.3%.

`COc1cccc(C(=O)NCC2(N3CCCCC3)CCCCC2)c1`: the double positive events is 19.8%. On to `O=C(NCC1(N2CCCCC2)CCCCC1)c1cccc(Cl)c1`, for which the double positive events was 17.5%. Consider `CN(C)C1(CNC(=O)c2ccc(Br)cc2)CCCCC1`, for which the double positive events worked out at 55.2%. Consider `COc1cc(C(=O)NCC2(N(C)C)CCCCC2)c([N+](=O)[O-])cc1OC`, for which the double positive events is 10.6%. `COc1ccc(Br)c(C(=O)NCC2(N3CCCCC3)CCCCC2)c1` came in with a double positive events of 11.9%. For the compound `CC(C)Oc1ccc(C(=O)NCC2(N(C)C)CCCCC2)cc1`, the double positive events came out at 63.2%. `CN(C)c1cccc(C(=O)NCC2(N(C)C)CCCCC2)c1` had a double positive events of 53.4%. With `COc1cc(SC)ccc1C(=O)NCC1(N(C)C)CCCCC1`, the double positive events stood at 34.5%. In turn, `CCCCC(CC)C(=O)N1CCN(C/C=C/c2ccccc2)CC1` (stereo not given) came in with a double positive events of 38%. In turn, `CC(C)N1C(=O)CC2(CCN(CCOC(=O)C(O)(c3ccccc3)c3ccccc3)CC2)C1=O` displayed a double positive events of 0.7%. Compound `Cc1ccc(C(=O)NCC2(N3CCCCC3)CCCCC2)cc1` gave a double positive events of 11.3%. In turn, `O=C(NCC1(N2CCCCC2)CCCCC1)c1cc([N+](=O)[O-])ccc1Cl` registered a double positive events of 17.8%. On to `O=C(NCC1(N2CCCCC2)CCCCC1)c1cc(F)c(F)cc1Cl`, for which the double positive events was 8.3%. As for `C=CCN1CCN(CCOC(=O)C(O)(c2ccccc2)c2ccccc2)CC1`, the double positive events worked out at 32.3%. For the compound `COc1ccc(C(=O)NCC2(N(C)C)CCCCC2)cc1`, the double positive events came out at 58.9%. Compound `O=C(NCC1(N2CCCCC2)CCCCC1)c1cccc(Br)c1` displayed a double positive events of 14.3%. Consider `Cc1cc(C(=O)NCC2(N3CCCCC3)CCCCC2)ccc1[N+](=O)[O-]`, for which the double positive events is 20.6%. `CN(C)c1ccc(C(=O)NCC2(N(C)C)CCCCC2)cc1` returned a double positive events of 32.5%. Under `Cc1ccccc1C(=O)NCC1(N2CCCCC2)CCCCC1` stands 10.7%.
